Record: PubChem BioAssay AID1259405 (NCATS, 2018)

Screen: 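Mouse-designed siRNAs used to find CHO productivity engineering targets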 (primary screen)
Cell system: Chinese hamster CHO-K1 ovary cells with stable secreted eGFP expression
Reagents: single siRNA against mouse genes, 0.8 pmol siRNA per well (2 µl of 400 nM stock)
Timing: 3 days
Read-out: 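Percent of the per-plate non-targeting control median for intracellular GFP per well by laser scanning cytometry and for cell viability by ATP luminescence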
Reading the numbers: GFP, % of control: higher = more GFP per well, higher productivity; viability (ATP), % of control: higher = more viable cells (more ATP)
Active means: 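Called active when intracellular GFP, relative to negative control, is at or above 120%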
Shown is a random part of about 50,000 reagents. About 4,000 of all reagents (8%) were called active. 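Mouse siRNA library applied to hamster cells; one well for each siRNA.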

Zfand5 [SID363572866] | GFP, % of control: 65.5; viability (ATP), % of control: 62.6; Call: inactive
Zfand5 [SID363577442] | GFP, % of control: 73.2; viability (ATP), % of control: 63.6; Call: inactive
Zfand5 [SID363580962] | GFP, % of control: 110; viability (ATP), % of control: 70.5; Call: inactive
Trim45 [SID363572732] | GFP, % of control: 96.1; viability (ATP), % of control: 87.8; Call: inactive
Trim45 [SID363578012] | GFP, % of control: 98.1; viability (ATP), % of control: 87.6; Call: inactive
Trim45 [SID363582236] | GFP, % of control: 108; viability (ATP), % of control: 137; Call: inactive
Ect2 [SID363572279] | GFP, % of control: 72.4; viability (ATP), % of control: 77.1; Call: inactive
Ect2 [SID363574039] | GFP, % of control: 82; viability (ATP), % of control: 64.1; Call: inactive
Trem4 [SID363542815] | GFP, % of control: 75.2; viability (ATP), % of control: 74.2; Call: inactive
Trem4 [SID363546332] | GFP, % of control: 199; viability (ATP), % of control: 57.5; Call: active
Trem4 [SID363548088] | GFP, % of control: 68.8; viability (ATP), % of control: 88.9; Call: inactive
Arpp19 [SID363546548] | GFP, % of control: 70.4; viability (ATP), % of control: 52.3; Call: inactive
Arpp19 [SID363548304] | GFP, % of control: 79.7; viability (ATP), % of control: 73; Call: inactive
Arpp19 [SID363560482] | GFP, % of control: 43; viability (ATP), % of control: 50.7; Call: inactive
Ptpn9 [SID363575044] | GFP, % of control: 105; viability (ATP), % of control: 97.4; Call: inactive
Ptpn9 [SID363580676] | GFP, % of control: 80.6; viability (ATP), % of control: 36.1; Call: inactive
Ptpn9 [SID363582788] | GFP, % of control: 82.6; viability (ATP), % of control: 54.5; Call: inactive
Arl5c [SID363541490] | GFP, % of control: 56.6; viability (ATP), % of control: 50.6; Call: inactive
Arl5c [SID363556117] | GFP, % of control: 176; viability (ATP), % of control: 60.8; Call: active
Arl5c [SID363566406] | GFP, % of control: 72.6; viability (ATP), % of control: 72.5; Call: inactive
Srsf9 [SID363569266] | GFP, % of control: 92.3; viability (ATP), % of control: 119; Call: inactive
Srsf9 [SID363583698] | GFP, % of control: 76.3; viability (ATP), % of control: 95.7; Call: inactive
Pon1 [SID363570242] | GFP, % of control: 95.6; viability (ATP), % of control: 90.7; Call: inactive
Pon1 [SID363576578] | GFP, % of control: 103; viability (ATP), % of control: 108; Call: inactive
Pon1 [SID363579746] | GFP, % of control: 61.2; viability (ATP), % of control: 63.6; Call: inactive
Map4k5 [SID363570913] | GFP, % of control: 56.3; viability (ATP), % of control: 80.8; Call: inactive
Rfx1 [SID363573686] | GFP, % of control: 106; viability (ATP), % of control: 102; Call: inactive
Rfx1 [SID363581430] | GFP, % of control: 78.5; viability (ATP), % of control: 67.1; Call: inactive
Rfx1 [SID363583894] | GFP, % of control: 103; viability (ATP), % of control: 97.7; Call: inactive
Fam181b [SID363542741] | GFP, % of control: 48; viability (ATP), % of control: 30.4; Call: inactive
Fam181b [SID363546258] | GFP, % of control: 69.8; viability (ATP), % of control: 51.4; Call: inactive
Fam181b [SID363548014] | GFP, % of control: 74.6; viability (ATP), % of control: 62.4; Call: inactive
Vps26b [SID363553806] | GFP, % of control: 60.7; viability (ATP), % of control: 77; Call: inactive
Vps26b [SID363561763] | GFP, % of control: 112; viability (ATP), % of control: 94.1; Call: inactive
Vps26b [SID363565501] | GFP, % of control: 80.9; viability (ATP), % of control: 83.4; Call: inactive
Vrk3 [SID363547372] | GFP, % of control: 73; viability (ATP), % of control: 83.3; Call: inactive
Vrk3 [SID363558141] | GFP, % of control: 24.7; viability (ATP), % of control: 44.4; Call: inactive
Vrk3 [SID363559899] | GFP, % of control: 65.4; viability (ATP), % of control: 73; Call: inactive
Mif [SID363582486] | GFP, % of control: 116; viability (ATP), % of control: 148; Call: inactive
Mif [SID363584246] | GFP, % of control: 93.1; viability (ATP), % of control: 70.8; Call: inactive

Reagents listed so far with an active call, once more:
Trem4 [SID363546332] | GFP, % of control: 199; viability (ATP), % of control: 57.5; Call: active
Arl5c [SID363556117] | GFP, % of control: 176; viability (ATP), % of control: 60.8; Call: active
